In PMC5640651, “Interfering with the high-affinity interaction between wheat amylase trypsin inhibitor CM3 and toll-like receptor 4: in silico and biosensor-based studies” (Scientific Reports, 2017):
These are yes or no findings as the source states them, for the method shown. Some entries that bind do so weakly or less than the wild type.

Amino acid sequences for entries named in this document (tags omitted). Residues count along the entry.
UniProt O00206, residues 24-631: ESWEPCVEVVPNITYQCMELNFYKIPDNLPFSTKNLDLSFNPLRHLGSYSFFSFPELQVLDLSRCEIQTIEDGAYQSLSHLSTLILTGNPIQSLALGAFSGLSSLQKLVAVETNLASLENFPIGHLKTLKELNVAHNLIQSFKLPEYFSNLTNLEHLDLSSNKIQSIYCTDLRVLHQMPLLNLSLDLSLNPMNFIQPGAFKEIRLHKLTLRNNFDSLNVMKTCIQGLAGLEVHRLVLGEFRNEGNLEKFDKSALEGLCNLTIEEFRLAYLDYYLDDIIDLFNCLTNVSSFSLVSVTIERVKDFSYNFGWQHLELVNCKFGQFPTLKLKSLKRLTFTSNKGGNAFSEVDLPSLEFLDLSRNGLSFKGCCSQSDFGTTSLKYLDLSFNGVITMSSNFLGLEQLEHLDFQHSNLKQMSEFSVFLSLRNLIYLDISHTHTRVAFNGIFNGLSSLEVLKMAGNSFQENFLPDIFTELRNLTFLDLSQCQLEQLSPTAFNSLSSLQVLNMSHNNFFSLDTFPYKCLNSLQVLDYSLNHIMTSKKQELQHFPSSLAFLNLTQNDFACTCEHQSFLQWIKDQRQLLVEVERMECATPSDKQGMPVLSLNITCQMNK

Columns and labels:
[1] = target: T1, human toll-like receptor 4, His-tagged (human, UniProt O00206 24-631); experiment: SPR; IAsys plus resonant mirror biosensor; TLR4-His immobilised; pH varied in the range 6-8; data not shown; both purified
T1 construct: toll-like receptor 4, human; called the extracellular domain of TLR4 in the results; described as a 100 kDa protein with isoelectric point 5.88; Coupled covalently to the carboxylate cuvette by EDC/NHS 'via the N-terminus of the poly-His tail'; also called TLR4; TLR4-His; source: pEF-BOS TLR4 plasmid, transfected in HCT-116 cell line (author contributions)

[2] = target: T1, human toll-like receptor 4, His-tagged; experiment: SPR; IAsys plus resonant mirror biosensor, competitive binding: immobilised TLR4 pre-saturated with 100 μM peptide, then ATI added; both purified

B1: wheat amylase trypsin inhibitor CM3 (natural protein, UniProt P17314 26-168, looked up)
chain: SGSCVPGVAFRTNLLPHCRDYVLQQTCGTFTPGSKLPEWMTSASIYSPGKPYLAKLYCCQELAEISQQCRCEALRYFIALPVPSQPVDPRSGNVGESGLIDLPGCPREMQWDFVRLLVAPGQCNLATIHNVRYCPAVEQPLWI
notes: also called ATI; wheat ATI CM3
[1]
  binding: binds
[2]
  binding: binds
